From patent US20040087774A1
No constants are given. Whether binding was seen depends on the method and setting. Some entries that bind do so weakly or less than the wild type. For some of these results: Tags and fused reporters may be left off the sequences shown.

Sequences of proteins named here, by UniProt entry; tags and fusion partners are left off. A change or cut given only in a name is not applied to a line headed by its entry.
UniProt P04386: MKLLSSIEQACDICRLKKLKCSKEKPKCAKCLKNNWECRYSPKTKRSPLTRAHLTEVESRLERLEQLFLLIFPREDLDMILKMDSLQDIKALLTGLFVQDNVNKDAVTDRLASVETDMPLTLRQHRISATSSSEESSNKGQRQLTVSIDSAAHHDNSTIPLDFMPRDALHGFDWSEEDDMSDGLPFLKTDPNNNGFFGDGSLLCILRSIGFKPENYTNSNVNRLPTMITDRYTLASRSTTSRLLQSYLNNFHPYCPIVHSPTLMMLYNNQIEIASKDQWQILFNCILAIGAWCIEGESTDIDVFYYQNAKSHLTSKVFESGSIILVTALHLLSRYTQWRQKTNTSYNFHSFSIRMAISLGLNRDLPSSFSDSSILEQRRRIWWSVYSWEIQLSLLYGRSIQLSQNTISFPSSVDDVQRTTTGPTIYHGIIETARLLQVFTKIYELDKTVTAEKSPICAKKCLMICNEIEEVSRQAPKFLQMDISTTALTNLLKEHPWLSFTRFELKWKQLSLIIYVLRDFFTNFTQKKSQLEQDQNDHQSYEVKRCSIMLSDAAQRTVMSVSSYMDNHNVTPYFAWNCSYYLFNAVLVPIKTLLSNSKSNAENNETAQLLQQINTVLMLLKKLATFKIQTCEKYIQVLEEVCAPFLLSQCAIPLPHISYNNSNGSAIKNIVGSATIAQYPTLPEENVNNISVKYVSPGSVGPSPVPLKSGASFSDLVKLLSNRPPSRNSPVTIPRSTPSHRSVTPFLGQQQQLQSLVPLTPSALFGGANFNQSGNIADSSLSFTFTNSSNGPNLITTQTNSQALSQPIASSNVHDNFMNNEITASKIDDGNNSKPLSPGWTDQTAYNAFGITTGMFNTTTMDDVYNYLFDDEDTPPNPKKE

Experiments:
[1] = target: T1, 35S-labeled TRAF2 (murine) (UniProt P39429); assay: in vitro binding (GST pull-down of 35S-labeled protein)
T1 sequence (35S-labeled (in vitro translated, TNT coupled reticulocyte lysate), looked up): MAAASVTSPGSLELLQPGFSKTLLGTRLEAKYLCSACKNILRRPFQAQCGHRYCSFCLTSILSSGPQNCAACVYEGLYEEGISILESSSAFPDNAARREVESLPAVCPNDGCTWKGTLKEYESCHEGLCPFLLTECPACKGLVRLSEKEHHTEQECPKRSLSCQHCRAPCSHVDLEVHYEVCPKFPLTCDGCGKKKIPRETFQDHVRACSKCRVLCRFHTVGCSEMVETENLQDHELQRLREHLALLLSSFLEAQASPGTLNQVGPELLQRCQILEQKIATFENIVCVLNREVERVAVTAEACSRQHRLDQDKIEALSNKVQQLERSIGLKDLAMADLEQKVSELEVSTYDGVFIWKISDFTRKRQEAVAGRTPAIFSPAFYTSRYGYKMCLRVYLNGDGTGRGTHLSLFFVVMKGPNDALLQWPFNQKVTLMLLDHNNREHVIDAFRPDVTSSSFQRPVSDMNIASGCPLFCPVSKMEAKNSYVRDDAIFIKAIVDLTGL

[2] = target: T2, 35S-labeled TRAF1 (murine) (UniProt P39428); assay: as above
T2 sequence (35S-labeled (in vitro translated, TNT coupled reticulocyte lysate), looked up): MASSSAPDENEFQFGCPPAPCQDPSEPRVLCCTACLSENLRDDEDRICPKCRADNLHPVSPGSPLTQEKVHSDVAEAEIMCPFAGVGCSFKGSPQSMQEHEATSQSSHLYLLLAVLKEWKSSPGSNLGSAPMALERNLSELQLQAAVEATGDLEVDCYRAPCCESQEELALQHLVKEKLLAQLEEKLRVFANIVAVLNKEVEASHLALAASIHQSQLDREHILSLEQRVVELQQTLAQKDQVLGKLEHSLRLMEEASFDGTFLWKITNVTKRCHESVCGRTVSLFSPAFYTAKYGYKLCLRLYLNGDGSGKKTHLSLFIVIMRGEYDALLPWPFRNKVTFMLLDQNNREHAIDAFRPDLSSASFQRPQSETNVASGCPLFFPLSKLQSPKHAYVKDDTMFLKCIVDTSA

[3] = target: T1, 35S-labeled TRAF2 (murine); assay: in vitro binding: GST-I-TRAF on glutathione Sepharose beads, 35S-labeled protein, SDS-PAGE and autoradiography
[4] = target: T2, 35S-labeled TRAF1 (murine); assay: as above
[5] = target: T1, 35S-labeled TRAF2 (murine); assay: in vitro binding assay (FIG. 2)
[6] = target: T2, 35S-labeled TRAF1 (murine); assay: in vitro binding assay (FIG. 2)
[7] = target: full length TRAF2 in the GAL4 DNA-binding domain vector pPC97 (yeast; murine) (UniProt P04386+P39429); assay: yeast two-hybrid screening, TRAF2 as bait

Measured: binding

B1: I-TRAFα expressed as a glutathione-S-transferase (GST) fusion protein (protein, not shown: a dimerising Fc or GST)
chain: MDKNIGEQLNRAYEAFRQACMDRDSAVRELQQKTENYEQRIREQQEQLSFQQNLIDRLKSQLLLVDSSRDNSYGYVPLLEDSDRRKNNLTLDEPHDKVKLGTLRDKQSKVRRQEVSSGKESAKGLNIPLHHERDNIEKTFWDLKEEFHRICLLAKAQKDHLSKLNIPDIATDTQCSVPIQCTDKTEKQEALFKPQAKDDINRGMSCVTAVTPRGLGRDEEDTSFESLSKFNVKFPPMDNDSIFLHSTPEAPSILAPATPETVCQDRFNMEVRDNPGNFVKTEETLFEIQGIDPITSAIQNLKTTDKTNPSNLRATCLPAGDHNVFYVNTFPLQDPPDAPFPSLDSPGKAVRGPQQPFWKPFLNQDTDLVVPSDSDSELLKPLVCEFCQELFPPSITSRGDFLRHLNTHFNGET
not listed: [7]
binds: all other assays above

B2: N-terminal portion of murine I-TRAF (amino acids 35-236), as GAL4 activation domain library clone (protein, not shown: large carriers)
chain: ENYEQRIREQQEQLSFQQNLIDRLKSQLLLVDSSRDNSYGYVPLLEDSDRRKNNLTLDEPHDKVKLGTLRDKQSKVRRQEVSSGKESAKGLNIPLHHERDNIEKTFWDLKEEFHRICLLAKAQKDHLSKLNIPDIATDTQCSVPIQCTDKTEKQEALFKPQAKDDINRGMSCVTAVTPRGLGRDEEDTSFESLSKFNVKFPP
binds: [7]
